Results deposited as PubChem BioAssay AID504784 (Drosophila RNAi Screening Center, 2011).

Assay: 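Fly genes whose silencing alters how much lipid cells keep in droplets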 (primary screen)
System: Drosophila Kc167 embryonic cells
Reagents: long dsRNA against Drosophila genes, about 250 ng dsRNA per well
Duration: 4 days
Challenge: cells fed 400 µM oleic acid bound to BSA
Read-out: 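Microscope images give a droplet-to-nucleus area ratio, taken as log and converted to a screen-wide B-score; higher values mean greater lipid storage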
Direction: droplet/nuclear area B-score: higher = more stored lipid (overstorage)
In all, the deposit lists about 17,000 reagents; shown is a random part of those that have a named target and a result. 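Each column is one replicate's B-score; the combined score over replicates was not deposited, so single values may mislead.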 A plus sign joins genes that one reagent is predicted to hit. Not all columns of the deposit are shown.

target gene	amplicon	droplet/nuclear area B-score, replicate 1	droplet/nuclear area B-score, replicate 2
CG9377	DRSC03217	0.926	
Prx1 (Peroxiredoxin 1)	DRSC10741	0.314	-0.495
Sec31 (Secretory 31)	DRSC07131	-0.999	3.85
CG7044	DRSC16180	1.5	
Cpr76Ba (Cuticular protein 76Ba)	DRSC11060	1.19	0.346
Pepck1 (Phosphoenolpyruvate carboxykinase 1)	DRSC07505	-1.98	-0.476
snf (sans fille)	DRSC18835	1.19	-0.226
Ir52c (Ionotropic receptor 52c)	DRSC21801	-0.413	0.239
Ent3 (Equilibrative nucleoside transporter 3)	DRSC09822	-0.13	0.61
bgm (bubblegum)	DRSC03495	3.74	2.05
aqrs (aquarius)	DRSC14724	0.0355	-0.634
CG7990	DRSC19296	-0.274	-0.593
CG7990	DRSC20069	1.78	1.73
CG7990	DRSC23195	-0.0209	0.0616
Abi (Abelson interacting protein)	DRSC14099	8.93	0.041
Ssb-c31a (Single stranded-binding protein c31A)	DRSC03443	0.629	-0.768
Mlp84B (Muscle LIM protein at 84B)	DRSC12596	0.416	1.97
Kr (Kruppel)	DRSC04622	0.479	-0.000593
CG17224	DRSC00489	0.393	-0.00476
Hsp70Bb + Hsp70Bbb	DRSC15885	-0.256	-0.0901
Ir94e (Ionotropic receptor 94e)	DRSC15229	0.121	0.935
CG2972	DRSC18250	0.71	-0.00225
CG32137	DRSC10271	0.232	0.792
CG32137	DRSC10272	1.8	3.6
Dnaaf6 (Dynein axonemal assembly factor 6)	DRSC10473	2.18	0.976
CG2124	DRSC18208	0.274	1.49
CG11382	DRSC18624	-1.12	-3.92
UQCR-Q (Ubiquinol-cytochrome c reductase ubiquinone-binding protein)	DRSC10886	7.38	5.11
Sms (Spermine synthase)	DRSC10408	1.72	1.11
CG11286	DRSC14293	0.0958	-0.806
CG17776	DRSC18136	-1.99	-1.23
RNaseP:RNA (Ribonuclease P RNA)	DRSC22967	1.99	3.49
clumsy	DRSC03111	0.905	-0.948
Rrp40 (Ribosomal RNA processing 40)	DRSC00074	-2.42	-1.17
svr (silver)	DRSC17293	0.176	-1.92
svr (silver)	DRSC18841	0.022	-0.506
tn (thin)	DRSC05768	-0.146	-0.276
tn (thin)	DRSC06532	0.238	1.21
CG4328	DRSC10410	-2.79	-1.75
CG4328	DRSC23146	0.735	-0.0182
CG3823	DRSC18325	-0.687	-0.0411
CG30479	DRSC06735	-1.1	0.301
elav (embryonic lethal abnormal vision)	DRSC18772	-0.223	
Cyp309a2 (Cytochrome P450 309a2)	DRSC00526	1.18	0.166
Tob (Transducer of ERBB2)	DRSC20294	-0.204	-1.53
mRpL1 (mitochondrial ribosomal protein L1)	DRSC16251	2.03	2.46
SmD2 (Small ribonucleoprotein particle protein SmD2)	DRSC12536	-0.00729	-0.0343
CG13075	DRSC09958	-0.0634	-0.617
CG31176	DRSC15038	-0.584	0.672
CG31176	DRSC16021	0.626	0.889
CG32181	DRSC22635	2.03	0.0666
TORIP (Torsin interacting protein)	DRSC10104	-0.0242	-0.0936
kermit	DRSC06074	0.448	-0.418
mRNA-cap (mRNA-capping-enzyme)	DRSC19789	0.928	1.78
Plod (procollagen lysyl hydroxylase)	DRSC10601	-1.31	1.21
Plod (procollagen lysyl hydroxylase)	DRSC10602	0.52	-0.18

Quoted from the listing for reference:
target gene	amplicon	droplet/nuclear area B-score, replicate 1	droplet/nuclear area B-score, replicate 2
tn (thin)	DRSC06532	0.238	1.21
CG4328	DRSC10410	-2.79	-1.75
CG4328	DRSC23146	0.735	-0.0182
CG3823	DRSC18325	-0.687	-0.0411
